Earlier results in US20050182029A1, “Metformin salts of lipophilic acids” (Sonus Pharmaceuticals, Inc., priority 2002, published 2005).

Conditions: 95% relative humidity (25° C.), at 6 hours

CN(C)C(=N)NC(=N)N.Cl [Metformin hydrochloride, N,N-dimethylimidodicarbonimidic diamide hydrochloride]
hygroscopicity, moisture uptake: greater than 20%
